Reference: patent publication US12491217B2, “Compositions and methods for promoting healthy neural development in an unborn baby” (The Regents of the University of California, priority 2019, dated 2025)

Assay: Metabolomics of fetal brain at E14.5
Type: in vivo, C57Bl/6J mice
Conditions: E14.5 fetal brain metabolite level; for fold of change ABX/SPF: ANOVA contrast ABX vs SPF; for fold of change GF/ABX: ANOVA contrast GF vs ABX; for fold of change GF/SPF: ANOVA contrast GF vs SPF; for fold of change GF/Sp: ANOVA contrast GF vs Sp; for fold of change Sp/ABX: ANOVA contrast Sp vs ABX; for fold of change Sp/SPF: ANOVA contrast Sp vs SPF

In the case of `O=C(O)/C=C\C(=O)O` [compound 1363], the “fold of change ABX/SPF” value is reported as 0.85, the “fold of change GF/ABX” value is reported as 1.11 and the “fold of change GF/SPF” value is reported as 0.94. The “fold of change GF/Sp” value was 1.08, the “fold of change Sp/ABX” value was 1.02 and the “fold of change Sp/SPF” value was 0.87.

In the case of `O=C(O)CCCCCCCCC(=O)O` [compound 1372], the “fold of change ABX/SPF” value is reported as 1.08, the “fold of change GF/ABX” value is reported as 0.94 and the “fold of change GF/SPF” value is reported as 1.02. For the same compound, the “fold of change GF/Sp” value was 1.18, the “fold of change Sp/ABX” value was 0.80 and the “fold of change Sp/SPF” value was 0.86.

In the case of `CCCCCC(N)C(=O)O` (stereo not drawn) [compound 1430], the “fold of change ABX/SPF” value is reported as 0.73, the “fold of change GF/ABX” value is reported as 1.22 and the “fold of change GF/SPF” value is reported as 0.89. The “fold of change GF/Sp” value was 1.12, the “fold of change Sp/ABX” value was 1.09 and the “fold of change Sp/SPF” value was 0.80.

For `CCCC(=O)OC(CC(=O)[O-])C[N+](C)(C)C` (stereo not drawn) [compound 1446], the “fold of change ABX/SPF” value was 0.93, the “fold of change GF/ABX” value was 1.23 and the “fold of change GF/SPF” value was 1.15. For the same compound, the “fold of change GF/Sp” value was 1.07, the “fold of change Sp/ABX” value was 1.15 and the “fold of change Sp/SPF” value was 1.07.

For `CCC(=O)OC(CC(=O)[O-])C[N+](C)(C)C` (stereo not drawn) [compound 1449], the “fold of change ABX/SPF” value was 0.84, the “fold of change GF/ABX” value was 1.14 and the “fold of change GF/SPF” value was 0.96. The “fold of change GF/Sp” value was 1.05, the “fold of change Sp/ABX” value was 1.08 and the “fold of change Sp/SPF” value was 0.91.

In the case of `CC(C(=O)O)C(=O)O` [compound 1452], the “fold of change ABX/SPF” value is reported as 0.69, the “fold of change GF/ABX” value is reported as 1.29 and the “fold of change GF/SPF” value is reported as 0.89. The “fold of change GF/Sp” value was 0.92, the “fold of change Sp/ABX” value was 1.39 and the “fold of change Sp/SPF” value was 0.97.

With `CC(=O)OC(CC(=O)[O-])C[N+](C)(C)C` (stereo not drawn) [compound 1480] the “fold of change ABX/SPF” value was 0.81, the “fold of change GF/ABX” value was 1.22 and the “fold of change GF/SPF” value was 0.99. For the same compound, the “fold of change GF/Sp” value was 1.05, the “fold of change Sp/ABX” value was 1.16 and the “fold of change Sp/SPF” value was 0.94.

For `CC(O)CC(=O)OC(CC(=O)[O-])C[N+](C)(C)C` (stereo not drawn) [compound 1483], the “fold of change ABX/SPF” value was 0.86, the “fold of change GF/ABX” value was 1.04 and the “fold of change GF/SPF” value was 0.90. The “fold of change GF/Sp” value was 1.13, the “fold of change Sp/ABX” value was 0.92 and the “fold of change Sp/SPF” value was 0.80.

With `CCCCCC(=O)OC(CC(=O)[O-])C[N+](C)(C)C` (stereo not drawn) [compound 1485] the “fold of change ABX/SPF” value was 0.98, the “fold of change GF/ABX” value was 1.53 and the “fold of change GF/SPF” value was 1.50. For the same compound, the “fold of change GF/Sp” value was 1.19, the “fold of change Sp/ABX” value was 1.29 and the “fold of change Sp/SPF” value was 1.26.

In the case of `CCCC(O)CC(=O)OC(CC(=O)[O-])C[N+](C)(C)C` (stereo not drawn) [compound 1487], the “fold of change ABX/SPF” value is reported as 0.86, the “fold of change GF/ABX” value is reported as 1.06 and the “fold of change GF/SPF” value is reported as 0.91. The “fold of change GF/Sp” value was 0.97, the “fold of change Sp/ABX” value was 1.10 and the “fold of change Sp/SPF” value was 0.95.

In the case of `CCCCCCCC(=O)OC(CC(=O)[O-])C[N+](C)(C)C` (stereo not drawn) [compound 1488], the “fold of change ABX/SPF” value is reported as 0.91, the “fold of change GF/ABX” value is reported as 1.92 and the “fold of change GF/SPF” value is reported as 1.74. The “fold of change GF/Sp” value was 1.20, the “fold of change Sp/ABX” value was 1.60 and the “fold of change Sp/SPF” value was 1.45.

For `CCCCCCCCCCCC(=O)OC(CC(=O)[O-])C[N+](C)(C)C` (stereo not drawn) [compound 1495], the “fold of change ABX/SPF” value was 0.82, the “fold of change GF/ABX” value was 2.17 and the “fold of change GF/SPF” value was 1.77. For the same compound, the “fold of change GF/Sp” value was 1.29, the “fold of change Sp/ABX” value was 1.68 and the “fold of change Sp/SPF” value was 1.37.

With `CCCCCCCCCCCCCC(=O)OC(CC(=O)[O-])C[N+](C)(C)C` (stereo not drawn) [compound 1496] the “fold of change ABX/SPF” value was 0.81, the “fold of change GF/ABX” value was 1.46 and the “fold of change GF/SPF” value was 1.19. The “fold of change GF/Sp” value was 0.96, the “fold of change Sp/ABX” value was 1.52 and the “fold of change Sp/SPF” value was 1.24.

For `CCCCCCCCCCCCCCCC(=O)OC(CC(=O)[O-])C[N+](C)(C)C` (stereo not drawn) [compound 1498], the “fold of change ABX/SPF” value was 0.70, the “fold of change GF/ABX” value was 1.30 and the “fold of change GF/SPF” value was 0.91. The “fold of change GF/Sp” value was 0.88, the “fold of change Sp/ABX” value was 1.48 and the “fold of change Sp/SPF” value was 1.03.

With `CCCCCCC=CCCCCCCCC(=O)OC(CC(=O)[O-])C[N+](C)(C)C` (stereo not drawn) [compound 1499] the “fold of change ABX/SPF” value was 0.77, the “fold of change GF/ABX” value was 1.74 and the “fold of change GF/SPF” value was 1.34. The “fold of change GF/Sp” value was 1.07, the “fold of change Sp/ABX” value was 1.62 and the “fold of change Sp/SPF” value was 1.25.

For `CCCCCCCCCCCCCCCCCC(=O)OC(CC(=O)[O-])C[N+](C)(C)C` (stereo not drawn) [compound 1500], the “fold of change ABX/SPF” value was 0.69, the “fold of change GF/ABX” value was 1.13 and the “fold of change GF/SPF” value was 0.77. The “fold of change GF/Sp” value was 0.86, the “fold of change Sp/ABX” value was 1.31 and the “fold of change Sp/SPF” value was 0.90.

With `CCCCCC=CCC=CCCCCCCCC(=O)OC(CC(=O)[O-])C[N+](C)(C)C` (stereo not drawn) [compound 1501] the “fold of change ABX/SPF” value was 0.76, the “fold of change GF/ABX” value was 2.17 and the “fold of change GF/SPF” value was 1.66. The “fold of change GF/Sp” value was 1.36, the “fold of change Sp/ABX” value was 1.60 and the “fold of change Sp/SPF” value was 1.22.

With `CCCCCCCC/C=C\CCCCCC(O)CC(=O)OC(CC(=O)[O-])C[N+](C)(C)C` (stereo not drawn) [compound 1503] the “fold of change ABX/SPF” value was 0.89, the “fold of change GF/ABX” value was 0.66 and the “fold of change GF/SPF” value was 0.59. The “fold of change GF/Sp” value was 0.81, the “fold of change Sp/ABX” value was 0.82 and the “fold of change Sp/SPF” value was 0.73.

With `CCCCCCCCC=CCCCCCCCC(=O)OC(CC(=O)[O-])C[N+](C)(C)C` (stereo not drawn) [compound 1504] the “fold of change ABX/SPF” value was 0.71, the “fold of change GF/ABX” value was 1.60 and the “fold of change GF/SPF” value was 1.14. For the same compound, the “fold of change GF/Sp” value was 1.06, the “fold of change Sp/ABX” value was 1.50 and the “fold of change Sp/SPF” value was 1.07.

For `CCCC/C=C\CCCCCCCC(=O)OC(CC(=O)[O-])C[N+](C)(C)C` (stereo not drawn) [compound 1506], the “fold of change ABX/SPF” value was 0.83, the “fold of change GF/ABX” value was 2.29 and the “fold of change GF/SPF” value was 1.90. For the same compound, the “fold of change GF/Sp” value was 1.27, the “fold of change Sp/ABX” value was 1.81 and the “fold of change Sp/SPF” value was 1.50.

In the case of `CCCCCCCCCCCCCCCCCCCC(=O)OC(CC(=O)[O-])C[N+](C)(C)C` (stereo not drawn) [compound 1517], the “fold of change ABX/SPF” value is reported as 0.75, the “fold of change GF/ABX” value is reported as 1.10 and the “fold of change GF/SPF” value is reported as 0.83. The “fold of change GF/Sp” value was 0.80, the “fold of change Sp/ABX” value was 1.36 and the “fold of change Sp/SPF” value was 1.03.

With `CCCCCC=CCC=CCC=CCC=CCCCC(=O)OC(CC(=O)[O-])C[N+](C)(C)C` (stereo not drawn) [compound 1518] the “fold of change ABX/SPF” value was 0.76, the “fold of change GF/ABX” value was 1.27 and the “fold of change GF/SPF” value was 0.96. The “fold of change GF/Sp” value was 1.05, the “fold of change Sp/ABX” value was 1.21 and the “fold of change Sp/SPF” value was 0.92.

For `CCCCCC=CCC=CCC=CCC=CCCCCCC(=O)OC(CC(=O)[O-])C[N+](C)(C)C` (stereo not drawn) [compound 1519], the “fold of change ABX/SPF” value was 0.68, the “fold of change GF/ABX” value was 1.36 and the “fold of change GF/SPF” value was 0.93. For the same compound, the “fold of change GF/Sp” value was 1.08, the “fold of change Sp/ABX” value was 1.26 and the “fold of change Sp/SPF” value was 0.86.

With `CCCCCCCCC=CCC=CCC=CCCCC(=O)OC(CC(=O)[O-])C[N+](C)(C)C` (stereo not drawn) [compound 1521] the “fold of change ABX/SPF” value was 0.99, the “fold of change GF/ABX” value was 1.10 and the “fold of change GF/SPF” value was 1.09. The “fold of change GF/Sp” value was 1.09, the “fold of change Sp/ABX” value was 1.01 and the “fold of change Sp/SPF” value was 1.00.

In the case of `CCCCC/C=C\C/C=C\CCCCCCCCCC(=O)OC(CC(=O)[O-])C[N+](C)(C)C` (stereo not drawn) [compound 1523], the “fold of change ABX/SPF” value is reported as 0.76, the “fold of change GF/ABX” value is reported as 1.42 and the “fold of change GF/SPF” value is reported as 1.07. The “fold of change GF/Sp” value was 1.02, the “fold of change Sp/ABX” value was 1.39 and the “fold of change Sp/SPF” value was 1.05.

In the case of `CC/C=C\C/C=C\C/C=C\C/C=C\C/C=C\CCCCCC(=O)OC(CC(=O)[O-])C[N+](C)(C)C` (stereo not drawn) [compound 1528], the “fold of change ABX/SPF” value is reported as 0.82, the “fold of change GF/ABX” value is reported as 0.84 and the “fold of change GF/SPF” value is reported as 0.68. The “fold of change GF/Sp” value was 0.86, the “fold of change Sp/ABX” value was 0.97 and the “fold of change Sp/SPF” value was 0.79.
